# Results from the supplement of paper PMC12823440, “Inhibitors supercharge kinase turnover through native proteolytic circuits” (Nature, 2025).
# Chains of the proteins cited; added tags and fusions are not shown. Lines headed by an entry give the natural chain unless they say otherwise; changes in a name come on top.
# UniProt O14965: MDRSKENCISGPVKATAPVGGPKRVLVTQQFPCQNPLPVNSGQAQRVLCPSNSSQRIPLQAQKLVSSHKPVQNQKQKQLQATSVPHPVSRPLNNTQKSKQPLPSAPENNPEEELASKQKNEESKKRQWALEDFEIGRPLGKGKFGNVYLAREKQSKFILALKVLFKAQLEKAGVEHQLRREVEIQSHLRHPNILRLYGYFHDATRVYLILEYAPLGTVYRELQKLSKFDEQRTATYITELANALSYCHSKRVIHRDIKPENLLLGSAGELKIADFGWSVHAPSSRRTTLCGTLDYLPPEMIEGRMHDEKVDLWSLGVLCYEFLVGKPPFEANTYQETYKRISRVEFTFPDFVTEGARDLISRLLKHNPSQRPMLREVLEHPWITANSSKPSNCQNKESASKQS
# UniProt Q9UQB9: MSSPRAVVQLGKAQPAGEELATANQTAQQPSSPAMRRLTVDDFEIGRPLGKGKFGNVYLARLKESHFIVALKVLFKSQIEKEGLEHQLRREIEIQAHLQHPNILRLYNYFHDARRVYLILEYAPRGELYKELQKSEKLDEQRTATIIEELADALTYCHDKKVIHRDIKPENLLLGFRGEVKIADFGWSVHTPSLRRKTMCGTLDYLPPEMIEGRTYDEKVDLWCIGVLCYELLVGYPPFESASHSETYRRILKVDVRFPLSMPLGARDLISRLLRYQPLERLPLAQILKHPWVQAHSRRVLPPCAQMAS
# UniProt P51451: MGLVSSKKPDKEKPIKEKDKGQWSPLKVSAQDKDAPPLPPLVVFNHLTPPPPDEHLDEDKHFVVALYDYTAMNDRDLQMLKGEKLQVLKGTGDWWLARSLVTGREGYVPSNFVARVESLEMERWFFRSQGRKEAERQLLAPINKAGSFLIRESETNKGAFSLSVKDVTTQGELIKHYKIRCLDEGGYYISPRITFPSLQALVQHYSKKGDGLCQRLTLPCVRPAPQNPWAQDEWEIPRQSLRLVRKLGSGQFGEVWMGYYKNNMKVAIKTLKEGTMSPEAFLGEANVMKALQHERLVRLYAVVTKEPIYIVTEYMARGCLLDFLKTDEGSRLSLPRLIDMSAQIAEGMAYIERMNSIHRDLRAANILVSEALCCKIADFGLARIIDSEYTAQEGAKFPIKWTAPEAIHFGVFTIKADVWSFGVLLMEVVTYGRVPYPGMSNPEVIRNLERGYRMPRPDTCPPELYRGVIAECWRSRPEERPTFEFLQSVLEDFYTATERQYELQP
# UniProt P51813: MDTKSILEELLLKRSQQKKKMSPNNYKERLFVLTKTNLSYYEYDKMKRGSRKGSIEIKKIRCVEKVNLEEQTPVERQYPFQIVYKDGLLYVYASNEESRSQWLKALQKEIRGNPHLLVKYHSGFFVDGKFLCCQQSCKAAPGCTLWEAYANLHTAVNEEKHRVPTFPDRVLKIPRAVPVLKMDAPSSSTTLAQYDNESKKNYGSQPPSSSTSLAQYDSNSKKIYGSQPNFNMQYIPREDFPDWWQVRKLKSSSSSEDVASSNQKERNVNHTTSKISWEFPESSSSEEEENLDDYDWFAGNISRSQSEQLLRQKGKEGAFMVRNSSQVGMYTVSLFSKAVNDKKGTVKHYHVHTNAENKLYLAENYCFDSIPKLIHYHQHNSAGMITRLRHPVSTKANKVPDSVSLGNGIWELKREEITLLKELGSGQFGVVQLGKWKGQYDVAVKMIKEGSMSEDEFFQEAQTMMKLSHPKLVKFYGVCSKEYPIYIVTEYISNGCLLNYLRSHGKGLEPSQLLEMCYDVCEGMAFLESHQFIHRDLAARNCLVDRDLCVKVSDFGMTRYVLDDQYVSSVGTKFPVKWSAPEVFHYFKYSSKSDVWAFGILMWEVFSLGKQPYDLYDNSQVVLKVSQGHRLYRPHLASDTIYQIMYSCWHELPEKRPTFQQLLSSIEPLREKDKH
# UniProt Q06187: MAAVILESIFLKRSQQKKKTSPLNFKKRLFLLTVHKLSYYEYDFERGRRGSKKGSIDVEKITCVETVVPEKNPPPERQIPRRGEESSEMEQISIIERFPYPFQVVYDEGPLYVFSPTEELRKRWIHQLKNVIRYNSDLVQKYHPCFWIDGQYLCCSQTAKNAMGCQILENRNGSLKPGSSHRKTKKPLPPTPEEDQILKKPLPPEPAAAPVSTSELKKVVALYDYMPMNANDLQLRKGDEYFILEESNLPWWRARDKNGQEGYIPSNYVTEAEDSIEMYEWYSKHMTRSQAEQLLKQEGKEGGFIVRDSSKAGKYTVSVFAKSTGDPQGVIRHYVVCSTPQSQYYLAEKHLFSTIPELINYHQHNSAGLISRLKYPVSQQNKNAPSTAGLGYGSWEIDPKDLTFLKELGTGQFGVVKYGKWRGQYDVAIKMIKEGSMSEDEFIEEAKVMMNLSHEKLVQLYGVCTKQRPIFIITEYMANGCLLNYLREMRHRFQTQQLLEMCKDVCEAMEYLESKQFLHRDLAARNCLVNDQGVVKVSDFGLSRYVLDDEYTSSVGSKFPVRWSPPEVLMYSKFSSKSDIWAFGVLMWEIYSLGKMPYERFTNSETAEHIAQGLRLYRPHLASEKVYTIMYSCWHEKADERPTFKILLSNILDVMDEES
# UniProt Q9UQM7, whole entry: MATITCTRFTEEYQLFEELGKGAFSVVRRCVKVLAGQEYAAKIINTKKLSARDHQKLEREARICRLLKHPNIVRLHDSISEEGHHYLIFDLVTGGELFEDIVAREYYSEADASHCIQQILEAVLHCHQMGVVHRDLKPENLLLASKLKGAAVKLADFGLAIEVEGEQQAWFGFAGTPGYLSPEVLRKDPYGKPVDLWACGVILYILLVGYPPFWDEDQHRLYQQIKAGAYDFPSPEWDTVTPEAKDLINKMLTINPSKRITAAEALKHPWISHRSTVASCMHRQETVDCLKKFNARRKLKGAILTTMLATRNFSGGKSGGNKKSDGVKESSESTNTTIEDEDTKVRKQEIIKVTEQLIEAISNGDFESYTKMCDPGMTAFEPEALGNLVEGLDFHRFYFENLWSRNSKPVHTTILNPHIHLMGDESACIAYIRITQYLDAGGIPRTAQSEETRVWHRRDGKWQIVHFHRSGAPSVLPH
# UniProt Q15131: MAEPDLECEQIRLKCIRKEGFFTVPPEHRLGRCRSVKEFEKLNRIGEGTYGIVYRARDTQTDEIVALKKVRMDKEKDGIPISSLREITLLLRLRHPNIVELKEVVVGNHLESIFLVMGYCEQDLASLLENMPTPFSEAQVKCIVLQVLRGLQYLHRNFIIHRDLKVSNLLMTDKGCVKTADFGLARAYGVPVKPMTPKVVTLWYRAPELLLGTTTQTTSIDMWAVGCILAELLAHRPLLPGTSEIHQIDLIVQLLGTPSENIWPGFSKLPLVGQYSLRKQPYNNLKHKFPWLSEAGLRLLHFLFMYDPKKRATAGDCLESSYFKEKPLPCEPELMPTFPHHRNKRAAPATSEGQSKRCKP
# UniProt Q00526: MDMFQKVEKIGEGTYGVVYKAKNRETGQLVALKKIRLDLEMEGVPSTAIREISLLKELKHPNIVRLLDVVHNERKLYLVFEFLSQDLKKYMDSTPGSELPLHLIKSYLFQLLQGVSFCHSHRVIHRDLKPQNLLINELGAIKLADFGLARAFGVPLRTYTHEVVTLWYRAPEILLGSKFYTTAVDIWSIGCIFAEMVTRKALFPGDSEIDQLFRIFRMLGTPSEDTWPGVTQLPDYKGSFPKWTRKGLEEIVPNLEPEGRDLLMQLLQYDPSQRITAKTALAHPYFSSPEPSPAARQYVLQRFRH
# UniProt Q00535, whole entry, looked up: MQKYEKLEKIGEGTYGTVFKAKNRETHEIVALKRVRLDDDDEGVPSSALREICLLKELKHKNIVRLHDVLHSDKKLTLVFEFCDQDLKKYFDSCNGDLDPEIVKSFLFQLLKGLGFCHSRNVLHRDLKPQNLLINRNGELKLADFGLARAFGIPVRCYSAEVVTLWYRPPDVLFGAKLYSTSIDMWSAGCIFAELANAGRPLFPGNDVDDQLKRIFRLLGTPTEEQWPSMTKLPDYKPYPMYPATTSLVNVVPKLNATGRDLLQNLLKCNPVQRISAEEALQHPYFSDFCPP
# UniProt Q00534, whole entry: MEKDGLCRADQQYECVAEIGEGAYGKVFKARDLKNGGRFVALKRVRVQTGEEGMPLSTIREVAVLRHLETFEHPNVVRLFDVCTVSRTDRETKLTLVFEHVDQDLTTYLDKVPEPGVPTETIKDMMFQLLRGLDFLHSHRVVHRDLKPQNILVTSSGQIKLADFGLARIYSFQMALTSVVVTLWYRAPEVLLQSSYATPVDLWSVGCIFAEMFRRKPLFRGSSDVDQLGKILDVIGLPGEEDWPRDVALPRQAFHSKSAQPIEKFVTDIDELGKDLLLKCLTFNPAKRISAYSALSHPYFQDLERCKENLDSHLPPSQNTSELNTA
# UniProt O96017, whole entry: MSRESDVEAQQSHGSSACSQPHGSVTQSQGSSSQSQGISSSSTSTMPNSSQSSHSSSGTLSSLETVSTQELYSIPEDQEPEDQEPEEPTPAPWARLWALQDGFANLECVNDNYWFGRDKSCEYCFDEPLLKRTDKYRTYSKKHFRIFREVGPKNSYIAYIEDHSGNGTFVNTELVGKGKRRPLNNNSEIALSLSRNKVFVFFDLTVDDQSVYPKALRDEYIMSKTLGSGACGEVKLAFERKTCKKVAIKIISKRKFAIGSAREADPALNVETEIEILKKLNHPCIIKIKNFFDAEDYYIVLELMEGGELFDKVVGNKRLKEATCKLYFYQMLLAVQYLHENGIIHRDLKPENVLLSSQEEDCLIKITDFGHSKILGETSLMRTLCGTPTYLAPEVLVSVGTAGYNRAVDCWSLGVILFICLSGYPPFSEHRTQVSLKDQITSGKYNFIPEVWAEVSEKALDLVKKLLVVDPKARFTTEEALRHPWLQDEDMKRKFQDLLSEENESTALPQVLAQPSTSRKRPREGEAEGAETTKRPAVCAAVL
# UniProt P07333, whole entry: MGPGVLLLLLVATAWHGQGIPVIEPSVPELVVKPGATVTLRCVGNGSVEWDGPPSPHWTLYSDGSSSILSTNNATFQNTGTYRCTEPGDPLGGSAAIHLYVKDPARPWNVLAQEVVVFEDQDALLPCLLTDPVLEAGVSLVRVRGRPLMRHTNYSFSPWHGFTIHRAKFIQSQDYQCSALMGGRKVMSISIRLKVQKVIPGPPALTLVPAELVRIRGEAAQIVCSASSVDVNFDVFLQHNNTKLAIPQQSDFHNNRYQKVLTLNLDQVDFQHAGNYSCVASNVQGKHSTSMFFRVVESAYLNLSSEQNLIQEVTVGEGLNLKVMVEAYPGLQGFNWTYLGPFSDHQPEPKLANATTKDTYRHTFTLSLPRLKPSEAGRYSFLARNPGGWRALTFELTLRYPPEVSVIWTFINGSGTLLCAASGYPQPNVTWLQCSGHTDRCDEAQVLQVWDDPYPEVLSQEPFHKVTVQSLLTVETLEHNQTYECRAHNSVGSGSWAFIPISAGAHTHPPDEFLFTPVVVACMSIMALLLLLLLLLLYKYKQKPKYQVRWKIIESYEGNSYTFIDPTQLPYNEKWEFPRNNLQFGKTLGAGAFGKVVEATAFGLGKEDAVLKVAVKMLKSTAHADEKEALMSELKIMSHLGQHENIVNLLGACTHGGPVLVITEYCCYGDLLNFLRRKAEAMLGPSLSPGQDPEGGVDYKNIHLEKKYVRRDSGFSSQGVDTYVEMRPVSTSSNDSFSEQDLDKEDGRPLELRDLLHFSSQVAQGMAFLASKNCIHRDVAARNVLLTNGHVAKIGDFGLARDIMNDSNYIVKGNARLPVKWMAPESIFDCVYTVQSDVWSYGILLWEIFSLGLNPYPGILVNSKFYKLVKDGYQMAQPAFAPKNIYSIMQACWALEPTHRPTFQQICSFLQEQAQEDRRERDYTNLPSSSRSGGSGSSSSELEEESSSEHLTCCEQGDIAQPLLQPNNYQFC
# UniProt P41240: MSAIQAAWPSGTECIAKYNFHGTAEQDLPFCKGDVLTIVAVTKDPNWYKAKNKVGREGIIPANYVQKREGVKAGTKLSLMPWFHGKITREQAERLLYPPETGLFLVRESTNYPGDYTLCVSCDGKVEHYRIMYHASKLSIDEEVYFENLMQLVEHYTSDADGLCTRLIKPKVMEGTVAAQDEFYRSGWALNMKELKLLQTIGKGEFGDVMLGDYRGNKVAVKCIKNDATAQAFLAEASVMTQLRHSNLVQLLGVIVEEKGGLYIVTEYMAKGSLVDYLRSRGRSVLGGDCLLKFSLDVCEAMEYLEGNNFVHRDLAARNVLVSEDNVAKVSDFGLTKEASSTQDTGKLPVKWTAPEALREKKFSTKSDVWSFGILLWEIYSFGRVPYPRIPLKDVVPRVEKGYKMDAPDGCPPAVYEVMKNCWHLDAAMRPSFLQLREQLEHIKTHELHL
# Counter-ions that a name gives are not always drawn. Some of the results follow. Hit calls seldom repeat between salt and free forms of one compound.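 In K562 cells expressing nanoluciferase-fused kinases, luminescence was recorded at 4 h intervals between 2 and 18 h, normalized as percent of control with DMSO at 100% and a positive control at 0%. A significant (2 sigma) signal drop marks a time point as decreased. The authors' rule for a hit is not shown and takes in more than the number of time points.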
# What was measured:
# Test in all cases: number of time points (of 5) at which kinase-Nluc abundance scored as decreased, DMSO-normalised (count); higher = more persistent destabilization
# Conditions in all cases: K562; 2-18 h
# ALK = ALK (UniProt Q9UM73)
# ARAF = ARAF (UniProt P10398)
# AURKA = AURKA (UniProt O14965)
# AURKB = AURKB (UniProt Q96GD4)
# AURKC = AURKC (UniProt Q9UQB9)
# BLK = BLK (UniProt P51451)
# BMX = BMX (UniProt P51813)
# BRAF = BRAF (UniProt P15056)
# BRAF_V600E = system: BRAF_V600E
# BTK = BTK (UniProt Q06187)
# CAMK2A = CAMK2A (UniProt Q9UQM7)
# CAMK2G = CAMK2G (UniProt Q13555)
# CDK10 = CDK10 (UniProt Q15131)
# CDK2 = CDK2 (UniProt P24941)
# CDK3 = CDK3 (UniProt Q00526)
# CDK5 = CDK5 (UniProt Q00535)
# CDK6 = CDK6 (UniProt Q00534)
# CHEK2 = CHEK2 (UniProt O96017)
# CSF1R = CSF1R (UniProt P07333)
# CSK = CSK (UniProt P41240)
Structure (SMILES),number of time points (ALK),number of time points (ARAF),number of time points (AURKA),number of time points (AURKB),number of time points (AURKC),number of time points (BLK),number of time points (BMX),number of time points (BRAF),number of time points (BRAF_V600E),number of time points (BTK),number of time points (CAMK2A),number of time points (CAMK2G),number of time points (CDK10),number of time points (CDK2),number of time points (CDK3),number of time points (CDK5),number of time points (CDK6),number of time points (CHEK2),number of time points (CSF1R),number of time points (CSK)
c1cc2c(cc1O[C@H]1OC[C@H]3[C@@H]1CO[C@@H]3c1ccc3c(c1)OCO3)OCO2 [Sesamolin] (10 µM),0,0,0,0,0,0,0,0,0,0,0,0,0,0,0,0,0,0,0,0
Cc1csc(-c2nnc(Nc3ccc(Oc4ncccc4-c4ccnc(N)n4)cc3)c3ccccc23)c1 (2.5 µM),0,0,0,0,0,0,0,0,0,0,0,0,0,0,0,0,0,0,0,0
O=C(Nc1ccc2[nH]nc(-c3ccncc3)c2c1)[C@@H]1CCN(CC(=O)N2CCN(c3ccc(-c4ncccn4)cc3)CC2)C1 (2.5 µM),0,0,0,0,0,0,0,0,0,0,0,0,0,0,0,0,0,0,0,0
O=C(NCCCNC(=O)Nc1cccc(C2=NCCN2)c1)Nc1cccc(C2=NCCN2)c1 [p32 Inhibitor M36] (10 µM),0,0,0,0,0,0,0,0,0,0,0,0,0,0,0,0,0,0,0,0
CNC(=O)c1ccc(-c2cnc3cnc(C(=O)N(C)c4ccc(Cl)cc4)cn23)cc1 (2.5 µM),0,0,0,0,0,0,0,0,0,0,0,0,0,0,0,0,0,0,0,0
COc1cc(N2CCN(C)CC2)ccc1Nc1ncc2c(n1)N(C1CCC1)C(=O)N(c1c(C)cccc1C)C2 (2.5 µM),0,0,0,0,0,0,0,0,0,0,0,0,0,0,0,0,0,0,0,0
COc1cc([N+](=O)[O-])ccc1S(=O)(=O)N1C[C@@H](CN2CCN(c3ccccn3)CC2)[C@H](c2cccc(F)c2)C1 (relative stereo) (10 µM),0,0,0,0,0,0,0,0,0,0,0,0,0,0,0,0,0,0,0,0
COc1cccc(-n2c(=O)[nH]c3cc(Cl)n(-c4ccc(-c5cccc(OC)c5O)cc4)c3c2=O)c1 (2.5 µM),0,0,0,0,0,0,0,0,1,0,0,0,0,0,0,0,0,0,0,0
C[C@@H]1O[C@@H](O[C@H]2[C@H](Oc3cc(O)c4c(=O)cc(-c5ccc(O)cc5)oc4c3)O[C@H](CO)[C@@H](O)[C@@H]2O)[C@H](O)[C@H](O)[C@H]1O [Rhoifolin] (10 µM),0,0,0,0,0,0,0,0,0,0,0,0,0,0,0,0,0,0,0,0
O=[N+]([O-])c1cc(C(F)(F)F)cc([N+](=O)[O-])c1NNC(=S)Nc1ccc(F)cc1 (10 µM),0,0,0,0,0,0,0,0,0,0,0,0,0,0,0,0,0,0,0,0
Cc1cc(Nc2cc3ncccc3c(N[C@@H]3C[C@H]4CC[C@@H](C3)N4CCC#N)n2)n[nH]1 [Izencitinib] (10 µM),0,0,0,0,0,0,0,0,0,0,0,0,0,0,0,1,0,0,0,0
CC(C)=CCC[C@](C)(O[C@@H]1O[C@H](CO)[C@@H](O)[C@H](O)[C@H]1O)[C@H]1CC[C@]2(C)[C@@H]1[C@H](O)C[C@@H]1[C@@]3(C)CC[C@H](O)C(C)(C)[C@@H]3[C@@H](O[C@@H]3O[C@H](CO)[C@@H](O)[C@H](O)[C@H]3O[C@@H]3O[C@@H](C)[C@H](O)[C@@H](O)[C@H]3O)C[C@]12C [Ginsenoside Re] (10 µM),0,0,0,0,0,0,0,0,0,0,0,0,0,0,0,0,0,0,0,0
CC(C)c1cnc(-c2cc(Cl)ccc2F)cc1Nc1ccncc1C(=O)NC(CO)CO (2.5 µM),0,0,0,0,0,0,0,0,0,0,0,0,0,0,0,0,0,0,0,0
O=C(CNC(=O)c1ccc(-c2ccccc2)cc1)NC1CCCc2ccccc21 (stereo not given) [TAO Kinase inhibitor 1] (10 µM),0,0,0,0,0,0,0,0,0,0,0,0,0,0,0,0,0,0,0,0
CN(C)CCN(Cc1ccc(Cl)cc1)c1ccccn1 [Chloropyramine hydrochloride] (10 µM),0,0,0,0,0,0,0,0,0,0,0,0,0,0,0,0,0,0,0,0
C/C(=C1/C(=O)Nc2ccc(NC(N)=O)cc21)c1ccc[nH]1 (10 µM),0,0,0,0,0,0,0,0,0,0,0,0,0,0,0,0,0,0,0,0
CNC(=O)Nc1ccc(-c2cc(-c3ccnc(Nc4ccc(C)c(S(=O)(=O)N(C)C)c4)n3)ccn2)cc1 [hSMG-1 inhibitor 11e] (2.5 µM),0,0,3,0,0,0,0,0,0,0,0,0,0,0,0,0,0,1,0,0
Cc1cc(-c2cc(OC(=O)c3ccccc3)ccc2Cl)cc2nnc(Nc3ccc(OCCN4CCCC4)cc3)nc12 (0.5 µM),0,0,0,0,0,0,0,0,0,0,0,0,0,0,0,0,0,0,0,0
C#CCN(C)C(=O)CCNc1nc(N2CCN(C(=O)C=C)CC2)c2cc(Cl)c(-c3c(O)cccc3F)c(F)c2n1 [ARS-1323-alkyne] (2.5 µM),0,0,0,0,0,0,0,0,0,0,0,0,0,0,0,0,0,0,0,0
O=C1Nc2nc(-c3c(O)cccc3OCC3CC3)cc([C@@H]3CCCNC3)c2CO1 [Bay 65-1942 (hydrochloride)] (10 µM),0,0,4,0,0,0,0,0,4,0,0,0,0,0,0,0,0,0,0,0
CCN1CCN(Cc2ccc(Nc3ncc(F)c(-c4cc(F)c5nc(CO)n(C(C)C)c5c4)n3)nc2)CC1 [Abemaciclib metabolite M20] (2 µM),0,0,1,0,0,0,1,0,0,0,0,0,0,0,0,0,0,0,0,0
O=C(Nc1cc(Oc2cc(F)c(NC(=O)C3(C(=O)Nc4ccc(F)cc4)CC3)cc2F)ccn1)C1CC1 [Altiratinib] (10 µM),0,0,0,0,0,0,0,5,0,0,0,0,0,0,0,0,2,0,0,0
CCn1c(C(=O)N(C2CC2)C2CC2)cc2c3c(ncn3C)c(Nc3cc(C)n(C)n3)nc21 (10 µM),0,0,0,0,0,0,0,0,0,0,0,0,0,0,0,0,0,0,0,0

# 4 of the compounds above, with bars between the fields.
Structure (SMILES) | number of time points (ALK) | number of time points (ARAF) | number of time points (AURKA) | number of time points (AURKB) | number of time points (AURKC) | number of time points (BLK) | number of time points (BMX) | number of time points (BRAF) | number of time points (BRAF_V600E) | number of time points (BTK) | number of time points (CAMK2A) | number of time points (CAMK2G) | number of time points (CDK10) | number of time points (CDK2) | number of time points (CDK3) | number of time points (CDK5) | number of time points (CDK6) | number of time points (CHEK2) | number of time points (CSF1R) | number of time points (CSK)
CNC(=O)c1ccc(-c2cnc3cnc(C(=O)N(C)c4ccc(Cl)cc4)cn23)cc1 (2.5 µM) | 0 | 0 | 0 | 0 | 0 | 0 | 0 | 0 | 0 | 0 | 0 | 0 | 0 | 0 | 0 | 0 | 0 | 0 | 0 | 0
COc1cc(N2CCN(C)CC2)ccc1Nc1ncc2c(n1)N(C1CCC1)C(=O)N(c1c(C)cccc1C)C2 (2.5 µM) | 0 | 0 | 0 | 0 | 0 | 0 | 0 | 0 | 0 | 0 | 0 | 0 | 0 | 0 | 0 | 0 | 0 | 0 | 0 | 0
COc1cc([N+](=O)[O-])ccc1S(=O)(=O)N1C[C@@H](CN2CCN(c3ccccn3)CC2)[C@H](c2cccc(F)c2)C1 (relative stereo) (10 µM) | 0 | 0 | 0 | 0 | 0 | 0 | 0 | 0 | 0 | 0 | 0 | 0 | 0 | 0 | 0 | 0 | 0 | 0 | 0 | 0
COc1cccc(-n2c(=O)[nH]c3cc(Cl)n(-c4ccc(-c5cccc(OC)c5O)cc4)c3c2=O)c1 (2.5 µM) | 0 | 0 | 0 | 0 | 0 | 0 | 0 | 0 | 1 | 0 | 0 | 0 | 0 | 0 | 0 | 0 | 0 | 0 | 0 | 0
